Data as given in PubChem BioAssay AID587 (National Center for Advancing Translational Sciences (NCATS), 2007).
Among all 59,000 compounds or so, about 35 (0.06%) were called active. Inconclusive means that the source gave no clear call. Such entries were picked first, then a sample of the others. Cut-off read from the data, not from the text of the source: active = max dye-equivalent concentration above about 10 nM; inconclusive = between about 1.1 nM and that limit; inactive = weaker than that.

Assay: qHTS Assay for Spectroscopic Profiling in Texas Red Spectral Region
Settings: Compound fluorescence, Texas Red channel, 547/618 nm; active compounds read high
Method in brief: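 qHTS profiling of intrinsic compound fluorescence; 100 mM Tris pH 8.0; 15 min RT; ex 547 / em 618 nm; response expressed as Texas Red dye-equivalent concentration from six-point plate standard.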
In the case of `CCNC(=O)CC1SC(=Nc2ccccc2C)N(C)C1=O` (centres undefined), the max dye-equivalent concentration is reported as inconclusive: 1.5 nM.
For `CC(C)N(CCNC(=O)C1CCN(S(=O)(=O)N2CCOCC2)CC1)Cc1ccccc1`, the max dye-equivalent concentration was inconclusive: 1.3 nM.
In the case of `O=C(Nc1cccc(O)c1)c1cccc(S(=O)(=O)N2CCCC2)c1`, the max dye-equivalent concentration is reported as inconclusive: 1.1 nM.
For `CCCCCCSc1ncc(C#N)c(N)n1`, the max dye-equivalent concentration was inconclusive: 1.1 nM.
In the case of `Cc1ccc(NC(=O)N2CCC(O)(c3ccc(Cl)cc3)CC2)cc1`, the max dye-equivalent concentration is reported as inconclusive: 1.3 nM.
For `Cc1cc(NC(=O)CSc2nnc(CNc3ccc(F)cc3)n2C2CCCCC2)no1`, the max dye-equivalent concentration was inconclusive: 1.6 nM.
For `CC(C)(C)c1ccc(OCC(=O)NC2CCS(=O)(=O)C2)cc1` (centres undefined), the max dye-equivalent concentration was inconclusive: 2 nM.
For `N#Cc1ccccc1-c1ccc2ncnc(NCc3cccs3)c2c1`, the max dye-equivalent concentration was “inactive”.
For `COc1ccc(CC2NCCC3(O)CCCCC23)cc1` (centres undefined), the max dye-equivalent concentration was inconclusive: 1.8 nM.
With `COc1ccc(C(=O)N(Cc2ccc(N(C)C)cc2)C2CCS(=O)(=O)C2)cc1` (centres undefined) the max dye-equivalent concentration was inconclusive: 2.2 nM.
With `N#Cc1cccc(NC(=O)COc2ccc(-n3ccnc3)cc2)c1` the max dye-equivalent concentration was inconclusive: 1.3 nM.
For `CCOc1ccccc1-n1nnnc1SCC(=O)NC(=O)NCc1ccco1`, the max dye-equivalent concentration was inconclusive: 1.6 nM.
With `CCNc1nc(SC(C(C)=O)C(C)=O)nc(N(C)C)n1` the max dye-equivalent concentration was inconclusive: 2.2 nM.
For `COc1cccc(-c2ccc3ncnc(N(C)C)c3c2)c1`, the max dye-equivalent concentration was inconclusive: 1.1 nM.
In the case of `CCOC(=O)c1[nH]c(C)c(C(=O)Nc2ccc(C)c(F)c2)c1C`, the max dye-equivalent concentration is reported as inconclusive: 1.3 nM.
For `O=C1CC(c2ccc(F)cc2)CC(O)=C1C=NCCN1CCN(C(=O)Nc2ccccc2)CC1` (centres undefined), the max dye-equivalent concentration was inconclusive: 1.3 nM.
For `Cc1occc1-c1nnc(SCC(=O)N2c3ccccc3CCc3ccccc32)n1C`, the max dye-equivalent concentration was inconclusive: 3.3 nM.
In the case of `COCCCN(Cc1ccccn1)S(=O)(=O)Cc1ccccc1`, the max dye-equivalent concentration is reported as inconclusive: 1.3 nM.
In the case of `COc1ccccc1-c1nnc(SCC(=O)OC(C)C)o1`, the max dye-equivalent concentration is reported as inconclusive: 2 nM.
In the case of `Fc1ccc(Cn2nnnc2CN2CCN(C3CCCCC3)CC2)cc1`, the max dye-equivalent concentration is reported as inconclusive: 2.6 nM.
In the case of `NCCc1nnc(SCc2ccccc2F)o1`, the max dye-equivalent concentration is reported as inconclusive: 1.8 nM.
For `N#CC(C#SN)=C1CCCCC1`, the max dye-equivalent concentration was inconclusive: 1.2 nM.
In the case of `O=C(O)C1CC(=O)N(Cc2ccc3c(c2)OCO3)C1` (centres undefined), the max dye-equivalent concentration is reported as inconclusive: 1.3 nM.
In the case of `c1nnc(NC2=NCCCCC2)s1`, the max dye-equivalent concentration is reported as inconclusive: 1.1 nM.
In the case of `O=S(=O)(c1ccc2c(c1)nc(COc1ccc(Cl)cc1)n2CC1CCCO1)N1CCOCC1` (centres undefined), the max dye-equivalent concentration is reported as inconclusive: 1.1 nM.
In the case of `Cc1nc2c(c(N3CCOCC3)n1)OCC(=O)N2`, the max dye-equivalent concentration is reported as inconclusive: 1.2 nM.
With `CCCn1c(SCC(=O)Nc2ccccc2CC)nnc1C(C)C` the max dye-equivalent concentration was inconclusive: 1.5 nM.
In the case of `NC(=O)c1ccc(-n2nnnc2SCc2ccc(F)cc2)cc1`, the max dye-equivalent concentration is reported as inconclusive: 1.7 nM.
For `Cc1cc(Cl)nc(NC(=O)CSc2ccc(Cl)cc2)n1`, the max dye-equivalent concentration was “inactive”.
With `CCN(CC)S(=O)(=O)c1ccc(-c2nnc(SCC(=O)N3CCc4ccccc43)o2)cc1` the max dye-equivalent concentration was inconclusive: 1.4 nM.
For `Cc1nc2ccc(NC3=NCCCCC3)cc2s1`, the max dye-equivalent concentration was “inactive”.
In the case of `CCCC(c1nnnn1CC(=O)OCC)N(Cc1cc2ccc(C)cc2[nH]c1=O)C1CCCC1` (centres undefined), the max dye-equivalent concentration is reported as inconclusive: 1.4 nM.
With `CC(C)(CO[C@H]1C[C@H]2CC[C@@]1(C)C2(C)C)[N+](=O)[O-]` the max dye-equivalent concentration was “inactive”.
In the case of `c1ccc(B2OC[C@@H]3OB(c4ccccc4)O[C@H]([C@@H]4COB(c5ccccc5)O4)[C@@H]3O2)cc1`, the max dye-equivalent concentration is reported as “inactive”.
With `COc1cccc(C2C=C(c3ccc(Br)s3)Nc3ncnn32)c1OC` (centres undefined) the max dye-equivalent concentration was “inactive”.
With `Cc1cccc2cc(C(c3nnnn3CC3CCCO3)N3CCc4ccccc4C3)c(=O)[nH]c12` (centres undefined) the max dye-equivalent concentration was inconclusive: 1.1 nM.
With `CN(C)c1ccc(-c2nn3c(-c4ccccc4Cl)nnc3s2)cc1` the max dye-equivalent concentration was inconclusive: 1.8 nM.
For `COc1ccc(NC(=O)N2CC[C@@]3(CCCN(C(=O)c4ccncc4)C3)C2)cc1`, the max dye-equivalent concentration was “inactive”.
For `CNc1nc(-c2ccccc2Cl)nc2ccccc12`, the max dye-equivalent concentration was inconclusive: 1.2 nM.
In the case of `CSc1c(C#N)c(N)c(C#N)c2c1COC(C)(C)C2`, the max dye-equivalent concentration is reported as “inactive”.
With `CCN(CCCNC(=O)c1[nH]c(C)c(C(C)=O)c1C)c1cccc(C)c1` the max dye-equivalent concentration was inconclusive: 1.4 nM.
With `COc1ccc(S(=O)(=O)Nc2cc(C)ccc2OC)cc1C` the max dye-equivalent concentration was inconclusive: 1.2 nM.
With `Cc1ccc(CC23CN4CCN(CC(C4)C2O)C3)c(C)c1` (centres undefined) the max dye-equivalent concentration was inconclusive: 1.6 nM.
In the case of `Cc1ccc(-c2nnn(CC(=O)N3CCN(c4ccccc4)CC3)n2)o1`, the max dye-equivalent concentration is reported as inconclusive: 1.1 nM.
